One compound from US11062797B2, “Method and system for obtaining and using pharmacokinetic data in drug administration” (Continuous Precision Medicine, priority 2014, dated 2021) can be followed below.

Read-outs that look alike come from different tables or passages of the source. Marks after values point to notes of the source that are not given here.

In the data set the test system is patients scheduled for elective esophagogastroduodenoscopy (EGD). The following applies: median (IQR). As for the experimental part: In addition to ASA standard monitors, respiratory inductance plethysmography (RIP) (Ambulatory Monitoring Inc, Armonk, N.Y.), SEDLine® patient state index (PSI) (Masimo Corp, Irvine, Calif.) and RAD87 pulse oximeter (Masimo Corp, Irvine, Calif.) were applied. All patients received 50 μg of fentanyl immediately prior to initiation of sedation. […] In the experimental arm, patient age and weight were used by the PRC algorithm to calculate bolus, infusion1, infusion2, and time for transition from infusion1 to infusion2. These numbers were reviewed by an investigator prior to initiation of sedation, and when the patient could tolerate airway placement, the software determined the maintenance infusion to maintain the effect-site concentration at the value existing at that time. Custom software written in Labview 2012 (National Instruments, Austin, Tex.) performed these calculations, transmitted the infusion rates to a Graseby 3400 pump (Marcal Medical, Millersville, Md.), and acquired data from the monitors.
All patients were preoxygenated using a Mapleson circuit at oxygen flows greater than 10 liters per minute. Following placement of the Robertazzi airway, the Mapleson circuit was connected to the airway via the connector from an endotracheal tube and the adjustable pressure limit valve closed, assuring continuous flow of 100% oxygen into the hypopharynx.
In experimental patients, the CRNA could request additional boluses or changes in infusion rates as they saw fit. […] This measure is reported in two ways. The first is termed “adjustment dose”, which is the cumulative absolute value of the difference between the intended trajectory and the actual administration. The second is the “intended ratio”, which is the ratio of the dose delivered on the intended trajectory and the actual administration. These measures are depicted in FIG. 7. In FIG. 7, the dotted line indicates the actual infusion rates, while the solid line indicates the intended trajectory (fixing the infusion rate at 300 μg/kg/min).
Ventilatory depression was assessed from respiratory inductance plethysmography signals. The signals were filtered by ensemble empirical mode decomposition employing 450 realizations and noise scaled to 40% of signal power. The dominant mode was used for the Huang-Hilbert Transform (HHT). Minute ventilation was computed as the product of the respiratory rate times the magnitude of volume change at one second intervals. Baseline ventilation was determined from several breaths prior to initiation of sedation; subsequent measurements were normalized by this baseline value. […]
Effect site estimates were calculated using the Cortinez model employing the nominal values, with an adjoined effect compartment. […]

As to `CC(C)c1cccc(C(C)C)c1O` [propofol], the “Adjustment Dosing” value reads like this: (Control (CRNA dosing)) 24.1 (37.2) mg; (Experimental (PRC)) 0 (0) # mg. In addition, the “Total Propofol” value is recorded as 295.6 (136.3) mg (Control (CRNA dosing)) and 287.5 (167) NS mg (Experimental (PRC)).
